Measurements taken from paper PMC4426700.
No constants are given. Whether binding was seen depends on the method and setting. In cells and extracts the contact can be indirect. Some binding calls cover weakened binding; strength is not graded here.

Target: p53 (human (endogenous in human stomach cancer cell lines)) (UniProt P04637)
Assay: co-IP; cell lysate immunoprecipitated with p53 antibody; YBX1 found in the precipitate; cell line and conditions not stated

Which binding does the source give for “Y-box binding protein 1 (from UniProt P67809 1-324)” here?
Its binding is “binds”.
